# Data reported in PubChem BioAssay AID2685 (National Center for Advancing Translational Sciences (NCATS), 2010).
# The other results are listed elsewhere or left out. Further columns of the screen follow, without active or inactive calls. Compounds called inactive in the main read-out are mostly missing here. The note in brackets gives the kind of curve behind each potency; many fits are weak.
# Test: qHTS Assay for Lipid Storage Modulators in Drosophila S3 Cells;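 for cell number change: cells counted by Cell Tracker Red CMTPX staining in the red channel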
# Conditions: BODIPY lipid droplet fluorescence, 18-24 h; for cell number change: measured here: cell count max response, cells fed with added oleic acid
# In short: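 Laser-scanning cytometry quantifies lipid droplet accumulation (500–530 nm total intensity; droplet/cell object ratio) in oleic acid-fed (400 uM added) Drosophila S3 cells treated with a concentration series. 20 uM Triacsin C defined 100% inhibition.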
# [1] = measured here: cell number channel AC50, cells fed with added oleic acid
# [2] = measured here: lipid fluorescence (Fed channel) AC50, cells fed with added oleic acid
Structure (SMILES),cell number change,AC50 [1],AC50 [2]
CCOc1ccc2nc(N3CCCN(C(=O)Nc4ccccc4C)CC3)c(C#N)cc2c1,254%,"1.16 µM [rising, partial curve]","0.58 µM [rising, full curve]"
CCCC1=C(C(=O)OCC)C(c2ccc(NC(C)=O)cc2)NC(=O)N1 (configuration not stated),1.56%,–,–
Cc1ccc(CNC(=O)c2cc3c(=O)n4ccccc4nc3n(CC3CCCO3)c2=N)cc1 (configuration not stated),223%,"0.461 µM [rising, partial curve, poor fit]","0.58 µM [rising, single point]"
Nc1cnccc1C(=O)O,–,–,"29.1 µM [rising, single point]"
Cc1cccc(C(=O)NCC(=O)Nc2ccncc2)c1,25.2%,–,"29.1 µM [rising, single point]"
CC(C)CN(CC(C)C)C(=O)Cc1coc2ccc3ccccc3c12,31.7%,"7.31 µM [rising, partial curve, poor fit]","6.51 µM [rising, partial curve]"
COCCCNC(=O)c1c(N)n(/N=C/c2cccnc2)c2nc3ccccc3nc12,3.57%,–,"0.092 µM [rising, full curve, poor fit]"
COc1ccc(NC(=O)CN(C)C(=O)C(CCSC)NC(=O)c2ccccc2)cc1 (configuration not stated),-12.5%,"6.51 µM [falling, single point]",–
Cc1cc(C)n(C(=O)CCN2C(=O)c3ccccc3C2=O)n1,12.6%,–,"2.06 µM [rising, partial curve]"
O=C(N=C1SC2CS(=O)(=O)CC2N1Cc1ccccc1Cl)C1CC1 (configuration not stated),-17.9%,"4.11 µM [rising, single point]","29.1 µM [rising, single point]"
NC(=O)c1ccc(NC(=O)CNC(=O)c2sc3ccccc3c2Cl)cc1,-25.4%,"1.64 µM [falling, full curve, poor fit]","29.1 µM [falling, single point]"
CCCCn1c(SCc2cccnc2)nc2c1c(=O)n(C)c(=O)n2C,–,"3.26 µM [rising, partial curve]","0.326 µM [rising, partial curve, poor fit]"
CN(c1ccccc1)S(=O)(=O)c1ccc(C(=O)NCC(c2ccco2)N2CCCCC2)cc1 (configuration not stated),-14.2%,–,–
COCCN(C(=O)/C=C/c1ccccc1)c1c(N)n(Cc2ccccc2)c(=O)[nH]c1=O,-9.05%,–,–
Cc1ccc(O)c(-c2cc(C(=O)Nc3c(C)n(C)n(-c4ccccc4)c3=O)[nH]n2)c1,21%,–,"11.6 µM [rising, partial curve, poor fit]"
CCOC(=O)Cc1[nH]nc2c1C(C1C=CCCC1)C(C#N)=C(N)O2 (configuration not stated),-44.8%,"18.4 µM [falling, single point]",–
O=C(CSCc1ccc(Cl)cc1)NCCSCc1ccco1,-21.6%,–,"7.31 µM [falling, partial curve, poor fit]"
O=C(CSc1ccc2nnc(-c3cccnc3)n2n1)Nc1ccc(F)cc1F,-1.56%,–,"6.51 µM [falling, single point]"
Cc1cc(NC(=O)CCC(=O)N(c2ccccc2)C(C(=O)NCC2CCCO2)c2cccnc2)no1 (configuration not stated),-18.3%,–,"13 µM [falling, partial curve]"
Cc1ccccc1N1CCN(Cc2ccc(Br)o2)CC1,–,–,"20.6 µM [rising, single point]"

Structure (SMILES),cell number change,AC50 [1],AC50 [2]
Cc1ccc(O)c(C(=O)CC(=O)c2ccccc2Cl)c1,-61%,"29.1 µM [falling, single point]",–
Cn1cc(CN2CCN(Cc3cccnc3)CC2)c(-c2ccc3c(c2)OCCO3)n1,17%,–,"20.6 µM [rising, single point]"
O=C1c2ccccc2NC(c2ccccc2)N1c1ccc(O)cc1 (configuration not stated),-7.26%,–,–
CN1CCN(NC(=O)CSc2ccc(Cl)cc2Cl)CC1,-24.8%,–,"29.1 µM [falling, single point]"
CCOc1ccccc1NC(=O)COC(=O)c1c[nH]c2ccccc12,–,"0.58 µM [rising, single point]",–
c1ccc(NC2=Nc3ccccc3CS2)cc1,1.5%,–,"6.51 µM [rising, single point]"
CC1S/C(=C(\C#N)C(=O)NCc2ccco2)N(c2ccc(F)cc2)C1=O (configuration not stated),-1.46%,–,–
CC(=O)Nc1ccc(S(=O)(=O)N2CCC(C(=O)NCCc3ccc(Cl)cc3)CC2)cc1,31.5%,"6.51 µM [rising, partial curve, poor fit]",–
CCOC(=O)c1c(C)[nH]c(C(=O)CSc2nnc(C3CC3)n2N)c1C,76.4%,"20.6 µM [rising, partial curve, poor fit]","6.51 µM [rising, partial curve]"
CC(Nc1ccccc1)c1cccnc1 (configuration not stated),10.3%,–,"0.366 µM [rising, full curve, poor fit]"
Cc1cc(Cn2nc(-c3ccccc3)cc2C(=O)NCc2cccc(Br)c2)on1,-20%,–,"29.1 µM [falling, single point]"
CC(=O)c1cccc(NC(=O)C2C3CCC(C3)C2C(=O)O)c1 (configuration not stated),-6.32%,–,"20.6 µM [rising, single point]"
Cc1c(C(=O)NC(=S)Nc2ccc(NC(=O)c3cccs3)cc2)oc2ccccc12,-16.1%,–,"2.06 µM [falling, full curve]"
CCC(=O)NC(=S)NNC(=O)c1ccc(NC(=O)c2ccccc2)cc1,-32.2%,"23.1 µM [falling, single point]",–
Cc1cccc(-c2ccc3ncnc(NCc4cccs4)c3c2)c1,-18.4%,–,–
CC(=O)Nc1ccccc1NC(=O)CC(C)(C)C,-111%,"23.1 µM [falling, partial curve]",–
CCCn1nc(C(=O)Nc2nc(-c3ccccn3)cs2)c2ccccc2c1=O,6.86%,–,–
Cc1cc(NC2CCCCC2)nc(NCc2ccccc2)n1,-78.6%,"20.6 µM [falling, single point]","23.1 µM [falling, single point]"
CCOc1ccc(NS(=O)(=O)c2ccc(C(=O)N(C)Cc3cccc(OC)c3OC)cc2)cc1,-30.3%,"14.6 µM [falling, single point]","29.1 µM [falling, single point]"
CCN(CC)CCNC(=O)c1cn(CC)c2ccc(S(=O)(=O)N(C)C)cc2c1=O,-38%,"0.146 µM [falling, full curve]","3.66 µM [falling, full curve]"

# 3 entries drawn at random from the list so far:
Structure (SMILES),cell number change,AC50 [1],AC50 [2]
Cc1cc(NC(=O)CCC(=O)N(c2ccccc2)C(C(=O)NCC2CCCO2)c2cccnc2)no1 (configuration not stated),-18.3%,–,"13 µM [falling, partial curve]"
COc1ccc(NC(=O)CN(C)C(=O)C(CCSC)NC(=O)c2ccccc2)cc1 (configuration not stated),-12.5%,"6.51 µM [falling, single point]",–
O=C(N=C1SC2CS(=O)(=O)CC2N1Cc1ccccc1Cl)C1CC1 (configuration not stated),-17.9%,"4.11 µM [rising, single point]","29.1 µM [rising, single point]"

# (continued)

Structure (SMILES),cell number change,AC50 [1],AC50 [2]
Cc1ccccc1NC(=O)NC(N)=O,-0.956%,–,"20.6 µM [rising, partial curve]"
COc1ccc(CCNC(=O)C(NS(=O)(=O)c2cccc3nsnc23)C(C)C)cc1OC (configuration not stated),24.1%,–,"16.4 µM [falling, partial curve]"
CCC(C)c1ccc(NC(=O)c2[nH]c(C)c(C(C)=O)c2C)cc1 (configuration not stated),5.86%,–,"0.164 µM [falling, full curve]"
N#Cc1cccc(NC(=O)NCCc2c[nH]c3ccccc23)c1,15.4%,–,"3.66 µM [rising, partial curve]"
O=C(O)c1ccc(S(=O)(=O)N2CCC3(CC2)CC(=O)c2ccccc2O3)cc1,23.6%,–,–
COc1ccc(CCNC(=O)C2CCN(c3ccc(N4CCOCC4)nn3)CC2)c(OC)c1,–,"4.61 µM [falling, partial curve, poor fit]",–
CCN(CC)CCn1cnc2c([nH]c3cccc(OC)c32)c1=O,-36.4%,"3.26 µM [falling, full curve]","3.66 µM [falling, full curve]"
COC(=O)CNC(c1ccccc1)c1cc(C)ccc1NC(=O)CNC(=O)OCc1ccccc1 (configuration not stated),–,"1.64 µM [rising, partial curve]","0.184 µM [falling, full curve, poor fit]"
O=C(NC1CCCC1)c1ccc(COCC(F)(F)C(F)F)o1,-21%,"1.16 µM [falling, full curve, poor fit]","0.00731 µM [falling, full curve]"
O=C(NCc1ccccc1Cl)NC(=O)c1csc([N+](=O)[O-])c1,–,–,"4.11 µM [rising, partial curve, poor fit]"
CCCNC(=O)COC(=O)/C=C/c1ccco1,6.89%,–,"20.6 µM [rising, partial curve, poor fit]"
O=C(Nc1sc2c(c1C(=O)c1ccccc1)CCCC2)c1cccnc1,39.8%,"10.3 µM [rising, partial curve]",–
CCN(CC)CCCN1C(=O)C(=O)/C(=C(/O)c2cc(C)ccc2C)C1c1cccnc1 (configuration not stated),-3.09%,"0.411 µM [falling, full curve, poor fit]","0.00461 µM [falling, full curve, poor fit]"
O=S(=O)(c1ccccc1F)N1CCN(C(=S)NCc2ccccc2)CC1,46%,"9.2 µM [rising, partial curve]",–
CSc1nnc(-c2cccs2)n1-c1ccccc1,-0.219%,–,–
COc1ccc(C(=O)COC(=O)/C=C/c2ccccc2)c(OC)c1,3.62%,–,"6.51 µM [rising, single point]"
COc1ccccc1NS(=O)(=O)c1cccc(NC(=O)c2ccc3ccccc3n2)c1,-21.1%,–,"29.1 µM [falling, single point]"
O=C1C(=O)N(Cc2cccs2)c2ccccc21,-22%,–,–
O=C(CSc1nc2[nH]c(=O)cc(O)c2s1)Nc1nccs1,-1.43%,–,"3.66 µM [rising, single point]"
Cc1ccc(C(=O)NC(=S)Nc2ccc(S(=O)(=O)N(C)c3ccccc3)cc2)cc1,9.81%,–,"20.6 µM [rising, partial curve]"
